PMC12428715
Results are given in words; binding and its absence hold for the method and conditions named. Binding seen in cells or lysates may run through a third protein. A yes stands for co-enrichment or nearness to the bait. Other partners may have been found. A no says only that the protein was not detected with the bait.

By UniProt entry, the sequences of proteins in these tests, tags left out. Residues count along the entry.
UniProt P05067, residues 672-713: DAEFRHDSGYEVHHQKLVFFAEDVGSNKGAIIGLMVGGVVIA
UniProt Q9BYJ9: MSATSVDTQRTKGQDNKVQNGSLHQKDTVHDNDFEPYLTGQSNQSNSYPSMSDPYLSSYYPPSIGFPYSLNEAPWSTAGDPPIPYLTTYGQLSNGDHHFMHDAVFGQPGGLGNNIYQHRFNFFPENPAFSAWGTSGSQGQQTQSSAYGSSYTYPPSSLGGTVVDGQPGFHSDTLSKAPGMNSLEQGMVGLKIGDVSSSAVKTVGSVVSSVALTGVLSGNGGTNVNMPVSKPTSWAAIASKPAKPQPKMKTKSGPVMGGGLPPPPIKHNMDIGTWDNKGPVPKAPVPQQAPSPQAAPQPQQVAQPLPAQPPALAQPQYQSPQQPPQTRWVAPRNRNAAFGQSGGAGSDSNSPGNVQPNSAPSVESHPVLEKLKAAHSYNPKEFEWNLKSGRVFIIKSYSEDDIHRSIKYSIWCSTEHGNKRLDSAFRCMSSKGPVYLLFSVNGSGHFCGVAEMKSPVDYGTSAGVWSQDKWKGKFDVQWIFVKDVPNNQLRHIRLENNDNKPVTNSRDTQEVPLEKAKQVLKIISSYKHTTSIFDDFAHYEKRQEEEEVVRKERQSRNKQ
UniProt Q7Z739: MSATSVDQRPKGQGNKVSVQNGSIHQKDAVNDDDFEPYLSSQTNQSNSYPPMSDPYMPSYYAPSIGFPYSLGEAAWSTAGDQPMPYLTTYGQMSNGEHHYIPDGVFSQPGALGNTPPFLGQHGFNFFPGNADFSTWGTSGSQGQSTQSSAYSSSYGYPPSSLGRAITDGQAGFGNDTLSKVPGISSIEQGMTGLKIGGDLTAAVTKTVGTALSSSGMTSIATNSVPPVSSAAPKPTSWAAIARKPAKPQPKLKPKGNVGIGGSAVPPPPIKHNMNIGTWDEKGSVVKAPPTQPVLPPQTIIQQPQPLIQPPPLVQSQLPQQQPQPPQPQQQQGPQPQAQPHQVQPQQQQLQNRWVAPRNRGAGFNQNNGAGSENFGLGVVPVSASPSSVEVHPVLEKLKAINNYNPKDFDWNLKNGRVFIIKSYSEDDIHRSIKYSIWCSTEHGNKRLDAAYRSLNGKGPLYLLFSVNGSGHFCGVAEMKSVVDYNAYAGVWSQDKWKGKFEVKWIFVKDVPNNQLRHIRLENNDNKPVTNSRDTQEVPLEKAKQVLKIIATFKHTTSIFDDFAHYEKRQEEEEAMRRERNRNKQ

Molecular target: amyloid-β 1–42 fused to GFP (UniProt P05067)
Experiment: affinity purification with mass spectrometry; GFP-Trap Magnetic Agarose pull-down of Aβ-EGFP (EGFP as background) from lysates of HeLa WT or TRMT61A KD cells 24 h after electroporation; 1 h at 4 °C; label-free quantification, five biological replicates

binding | Substance
no binding | YTHDF1 (from UniProt Q9BYJ9 1-559)
no binding | YTHDF3 (from UniProt Q7Z739 1-585)
